Test results: publication PMC10879806
Results are given in words; binding and its absence hold for the method and conditions named. Binding seen in cells or lysates may run through a third protein. Some results given as binding are weak or reduced against the parent protein; the word gives no strength.

Sequences of proteins named here, by UniProt entry; tags and fusion partners are left off. Residues count along the entry.
UniProt P25799, residues 1-431: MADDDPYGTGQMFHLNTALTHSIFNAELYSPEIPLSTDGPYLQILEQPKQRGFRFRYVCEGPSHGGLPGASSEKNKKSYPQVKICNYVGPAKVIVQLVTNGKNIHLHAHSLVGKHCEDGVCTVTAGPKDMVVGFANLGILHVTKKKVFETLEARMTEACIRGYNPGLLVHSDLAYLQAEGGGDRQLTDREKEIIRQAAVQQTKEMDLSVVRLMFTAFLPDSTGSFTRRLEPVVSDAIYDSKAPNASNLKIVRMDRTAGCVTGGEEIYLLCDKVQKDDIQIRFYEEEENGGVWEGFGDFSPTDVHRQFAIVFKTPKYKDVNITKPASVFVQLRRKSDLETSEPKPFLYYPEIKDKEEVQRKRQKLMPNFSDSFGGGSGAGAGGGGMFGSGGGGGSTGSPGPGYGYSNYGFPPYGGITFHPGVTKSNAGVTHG
UniProt P07356: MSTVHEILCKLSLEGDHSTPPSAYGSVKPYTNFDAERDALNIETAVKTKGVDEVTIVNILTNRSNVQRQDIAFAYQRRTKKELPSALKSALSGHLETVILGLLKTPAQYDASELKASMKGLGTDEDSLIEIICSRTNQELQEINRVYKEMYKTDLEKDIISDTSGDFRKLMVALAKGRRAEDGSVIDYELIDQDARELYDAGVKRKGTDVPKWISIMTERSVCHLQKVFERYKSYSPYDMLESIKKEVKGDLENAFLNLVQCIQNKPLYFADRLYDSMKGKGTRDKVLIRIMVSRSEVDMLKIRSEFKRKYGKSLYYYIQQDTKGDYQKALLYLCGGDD

Biological target: p50 subunit of NF-κB (mouse (endogenous in BV2)) (UniProt P25799)
Experiment: co-IP; BV2 cell lysates, with or without OGD/R treatment; lysis buffer 50 mM Tris-HCl pH 7.5, 150 mM NaCl, 1% Nonidet P-40, 1 mM EDTA, 0.5% sodium deoxycholate; anti-Anxa2 or anti-p50 antibody overnight at 4 °C, protein A/G magnetic beads; immunoblotting

Question: Which binding does the source give for Annexin A2 (from UniProt P07356 1-339) here?
Answer: Its binding is “binds”.
